Data as given in PubChem BioAssay AID1224826 (NIAID, 2016)
The whole screen tested about 17,000 reagents; this is a part drawn at random. Of all reagents, about 1,110 (6.6%) are marked active. 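Active means lowered or raised reporter signal; replicate intensities are raw and not normalised per plate.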 A number with no mark means an inactive call. Not all columns of the deposit are shown.

Test: 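Regulators of Tlr4 signalling leading to Tnf-alpha expression in macrophages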 (primary screen)
Cell system: RAW264.7 G9 macrophages from mouse bearing reporters for p65 (GFP) and the Tnf promoter (mCherry)
Knock-down reagent: siRNA pool against mouse genes, 100 nM
Duration: 16 h of LPS stimulation, after 2 days of siRNA transfection
Treatment: bacterial lipopolysaccharide (Salmonella minnesota R595), 10 ng/ml
Read-out: 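Imaged Tnf reporter mCherry in nuclei, minus background, normalised per plate to the median and expressed as robust z-scores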
Direction: Tnf reporter robust z-score: higher = stronger Tnf promoter reporter signal after LPS
Hit rule: 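Called active when robust z-score is at most -1.3, matching the median of the Tlr4 knock-down control, or over 3; control wells and wells with under 50 cells never active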
Calls: active = Tnf reporter clearly lowered or raised; inactive = no clear change in Tnf reporter

Hapln1: Tnf reporter robust z-score = -0.64; fewer than 50 cells in well = enough cells in well
Or5h22: Tnf reporter robust z-score = -0.38; fewer than 50 cells in well = enough cells in well
Ppan: Tnf reporter robust z-score = -0.72; fewer than 50 cells in well = enough cells in well
Smad2: Tnf reporter robust z-score = 0.41; fewer than 50 cells in well = enough cells in well
Gli3: fewer than 50 cells in well = fewer than 50 cells per well; well left out of calls
Gpr18: Tnf reporter robust z-score = 0.54; fewer than 50 cells in well = enough cells in well
Oasl2: Tnf reporter robust z-score = -0.8; fewer than 50 cells in well = enough cells in well
Kcnh2: Tnf reporter robust z-score = 0.46; fewer than 50 cells in well = enough cells in well
Wdr13: Tnf reporter robust z-score = -0.69; fewer than 50 cells in well = enough cells in well
Haus1: Tnf reporter robust z-score = 0.29; fewer than 50 cells in well = enough cells in well
Slit1: Tnf reporter robust z-score = -0.93; fewer than 50 cells in well = enough cells in well
Dcun1d4: Tnf reporter robust z-score = 0.3; fewer than 50 cells in well = enough cells in well
Spast: Tnf reporter robust z-score = -0.18; fewer than 50 cells in well = enough cells in well
Chchd5: Tnf reporter robust z-score = -0.1; fewer than 50 cells in well = enough cells in well
Or52n4: Tnf reporter robust z-score = -0.86; fewer than 50 cells in well = enough cells in well
Fcgbpl1: Tnf reporter robust z-score = -0.79; fewer than 50 cells in well = enough cells in well
Ptgdr: Tnf reporter robust z-score = -0.09; fewer than 50 cells in well = enough cells in well
4930474N05Rik: fewer than 50 cells in well = fewer than 50 cells per well; well left out of calls
Dut: Tnf reporter robust z-score = -0.27; fewer than 50 cells in well = enough cells in well
Grp: Tnf reporter robust z-score = 2.23; fewer than 50 cells in well = enough cells in well
Scara3: Tnf reporter robust z-score = 0; fewer than 50 cells in well = enough cells in well

2 of these entries in another layout:
Target gene	Tnf reporter robust z-score	fewer than 50 cells in well
Kcnh2	0.46	enough cells in well
Wdr13	-0.69	enough cells in well
